These are yes or no findings as the source states them, for the method shown. Binding can be weak; no strength is given.
Columns and labels:
[1] = biological target: murine rBAT (purified with b^0,+AT) (murine) (UniProt Q91WV7); test: SDS-PAGE under non-reducing and reducing conditions
[2] = biological target: ovine rBAT V355C/R362D/R326D with N-terminal EGFP (HeLa) (ovine); test: non-reducing SDS-PAGE with dual-colour in-gel fluorescence
[3] = biological target: ovine rBAT V355C/D349R/D359R with N-terminal EGFP (HeLa) (ovine); test: as above
[4] = biological target: ovine rBAT V355C with N-terminal EGFP (HeLa) (ovine); test: as above

The chains behind the UniProt entries cited, without tags or fusion partners. Where a name states a change or a piece, a line headed by the entry shows the natural chain unless it says otherwise.
UniProt Q91WV7: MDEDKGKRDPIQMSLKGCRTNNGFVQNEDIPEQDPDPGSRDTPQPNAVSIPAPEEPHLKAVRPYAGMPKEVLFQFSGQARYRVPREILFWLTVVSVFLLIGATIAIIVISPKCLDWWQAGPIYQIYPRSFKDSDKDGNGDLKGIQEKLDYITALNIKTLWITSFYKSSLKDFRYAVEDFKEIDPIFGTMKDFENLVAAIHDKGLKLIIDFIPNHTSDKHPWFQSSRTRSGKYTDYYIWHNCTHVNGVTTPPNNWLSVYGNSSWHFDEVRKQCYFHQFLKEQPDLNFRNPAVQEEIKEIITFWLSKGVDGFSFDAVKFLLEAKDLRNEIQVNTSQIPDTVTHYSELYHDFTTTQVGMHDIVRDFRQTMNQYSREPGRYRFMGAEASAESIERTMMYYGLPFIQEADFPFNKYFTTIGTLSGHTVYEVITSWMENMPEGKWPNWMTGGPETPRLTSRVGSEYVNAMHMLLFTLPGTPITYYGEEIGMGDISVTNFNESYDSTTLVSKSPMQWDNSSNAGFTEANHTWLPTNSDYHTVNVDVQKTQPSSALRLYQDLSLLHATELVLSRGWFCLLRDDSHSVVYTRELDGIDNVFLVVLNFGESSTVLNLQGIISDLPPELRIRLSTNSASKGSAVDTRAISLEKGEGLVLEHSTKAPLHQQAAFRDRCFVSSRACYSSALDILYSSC
UniProt Q9QXA6: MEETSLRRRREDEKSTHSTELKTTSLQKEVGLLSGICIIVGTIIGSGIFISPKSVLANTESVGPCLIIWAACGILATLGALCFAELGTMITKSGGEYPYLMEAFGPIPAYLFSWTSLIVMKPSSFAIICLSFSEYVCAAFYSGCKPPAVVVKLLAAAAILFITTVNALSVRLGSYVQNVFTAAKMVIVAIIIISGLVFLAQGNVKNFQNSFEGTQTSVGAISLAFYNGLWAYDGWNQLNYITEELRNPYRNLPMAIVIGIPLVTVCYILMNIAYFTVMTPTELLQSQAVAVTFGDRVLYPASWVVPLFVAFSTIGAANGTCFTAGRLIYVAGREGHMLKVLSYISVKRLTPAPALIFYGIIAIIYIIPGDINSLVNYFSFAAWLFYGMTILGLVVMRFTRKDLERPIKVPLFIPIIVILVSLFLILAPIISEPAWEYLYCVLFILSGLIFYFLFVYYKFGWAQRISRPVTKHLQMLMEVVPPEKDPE

In the case of “murine b^0,+AT (purified with rBAT) (from UniProt Q9QXA6)”, the binding [1] is reported as “binds”.

For “ovine b^0,+AT with C-terminal TwinStrep II and mCherry (HeLa) (from UniProt A0ACI6QX61 1-487)”, the binding [2] was “binds”, the binding [3] was “binds” and the binding [4] was “binds”.

Source: article doi:10.1101/2021.05.06.443019
